{"sequences": {"note": "Amino acid sequences for entries named in this document (tags omitted). A change or cut given only in a name is not applied to a line headed by its entry.", "UniProt Q8IVN3": "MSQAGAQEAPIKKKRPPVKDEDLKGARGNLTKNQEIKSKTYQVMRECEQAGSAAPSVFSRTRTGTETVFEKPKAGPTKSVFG", "UniProt Q8IZC7": "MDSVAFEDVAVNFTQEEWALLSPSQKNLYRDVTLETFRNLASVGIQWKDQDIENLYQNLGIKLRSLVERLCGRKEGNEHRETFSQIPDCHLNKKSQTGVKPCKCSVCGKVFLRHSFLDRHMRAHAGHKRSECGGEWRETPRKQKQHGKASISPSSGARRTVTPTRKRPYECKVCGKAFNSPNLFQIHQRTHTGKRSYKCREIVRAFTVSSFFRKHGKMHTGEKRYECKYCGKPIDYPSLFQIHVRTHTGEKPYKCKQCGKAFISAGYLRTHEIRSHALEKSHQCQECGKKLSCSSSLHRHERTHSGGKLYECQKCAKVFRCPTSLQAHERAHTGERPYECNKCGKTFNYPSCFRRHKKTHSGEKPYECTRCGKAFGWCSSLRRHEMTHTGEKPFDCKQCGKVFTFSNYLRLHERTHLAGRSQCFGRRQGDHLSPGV", "UniProt Q86YF9": "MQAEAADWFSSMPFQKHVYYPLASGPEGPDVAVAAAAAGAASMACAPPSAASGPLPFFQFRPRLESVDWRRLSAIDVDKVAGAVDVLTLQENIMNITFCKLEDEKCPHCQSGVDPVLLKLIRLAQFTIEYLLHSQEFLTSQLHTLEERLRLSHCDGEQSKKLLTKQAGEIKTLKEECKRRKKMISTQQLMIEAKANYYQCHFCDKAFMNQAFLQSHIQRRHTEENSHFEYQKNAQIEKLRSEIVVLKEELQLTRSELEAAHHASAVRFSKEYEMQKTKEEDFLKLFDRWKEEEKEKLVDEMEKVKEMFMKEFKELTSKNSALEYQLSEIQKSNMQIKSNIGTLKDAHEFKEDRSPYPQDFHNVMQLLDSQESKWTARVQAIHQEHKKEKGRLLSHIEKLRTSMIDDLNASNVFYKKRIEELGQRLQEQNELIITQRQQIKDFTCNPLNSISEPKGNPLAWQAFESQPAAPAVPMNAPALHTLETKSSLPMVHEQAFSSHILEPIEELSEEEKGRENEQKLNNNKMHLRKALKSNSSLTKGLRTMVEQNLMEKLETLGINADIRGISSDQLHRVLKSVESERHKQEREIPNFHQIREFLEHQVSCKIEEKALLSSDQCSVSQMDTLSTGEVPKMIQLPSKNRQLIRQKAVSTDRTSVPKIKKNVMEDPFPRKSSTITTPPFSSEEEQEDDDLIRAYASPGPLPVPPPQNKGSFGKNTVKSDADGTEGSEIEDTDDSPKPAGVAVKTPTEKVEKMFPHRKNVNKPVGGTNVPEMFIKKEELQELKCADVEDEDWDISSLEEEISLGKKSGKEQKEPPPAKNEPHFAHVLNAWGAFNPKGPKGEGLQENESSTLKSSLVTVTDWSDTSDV", "UniProt Q8IWF2": "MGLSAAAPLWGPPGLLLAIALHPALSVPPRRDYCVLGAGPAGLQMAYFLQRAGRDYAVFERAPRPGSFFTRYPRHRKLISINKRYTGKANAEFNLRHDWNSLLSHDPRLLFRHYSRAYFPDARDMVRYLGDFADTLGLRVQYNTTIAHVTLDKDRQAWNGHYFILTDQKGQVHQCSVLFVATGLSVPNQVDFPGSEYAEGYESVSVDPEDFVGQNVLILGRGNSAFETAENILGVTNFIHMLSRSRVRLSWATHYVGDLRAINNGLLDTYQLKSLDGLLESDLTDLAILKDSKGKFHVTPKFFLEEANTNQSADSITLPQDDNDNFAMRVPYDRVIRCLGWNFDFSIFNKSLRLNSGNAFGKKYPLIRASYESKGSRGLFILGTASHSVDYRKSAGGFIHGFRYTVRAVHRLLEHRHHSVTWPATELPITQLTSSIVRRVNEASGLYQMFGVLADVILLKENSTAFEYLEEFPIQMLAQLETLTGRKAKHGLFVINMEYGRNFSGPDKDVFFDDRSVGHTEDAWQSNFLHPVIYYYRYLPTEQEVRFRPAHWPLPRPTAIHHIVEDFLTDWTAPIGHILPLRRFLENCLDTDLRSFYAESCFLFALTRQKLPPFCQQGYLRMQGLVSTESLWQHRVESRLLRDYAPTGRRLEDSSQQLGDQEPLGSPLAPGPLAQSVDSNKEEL", "UniProt Q86YC2, whole entry": "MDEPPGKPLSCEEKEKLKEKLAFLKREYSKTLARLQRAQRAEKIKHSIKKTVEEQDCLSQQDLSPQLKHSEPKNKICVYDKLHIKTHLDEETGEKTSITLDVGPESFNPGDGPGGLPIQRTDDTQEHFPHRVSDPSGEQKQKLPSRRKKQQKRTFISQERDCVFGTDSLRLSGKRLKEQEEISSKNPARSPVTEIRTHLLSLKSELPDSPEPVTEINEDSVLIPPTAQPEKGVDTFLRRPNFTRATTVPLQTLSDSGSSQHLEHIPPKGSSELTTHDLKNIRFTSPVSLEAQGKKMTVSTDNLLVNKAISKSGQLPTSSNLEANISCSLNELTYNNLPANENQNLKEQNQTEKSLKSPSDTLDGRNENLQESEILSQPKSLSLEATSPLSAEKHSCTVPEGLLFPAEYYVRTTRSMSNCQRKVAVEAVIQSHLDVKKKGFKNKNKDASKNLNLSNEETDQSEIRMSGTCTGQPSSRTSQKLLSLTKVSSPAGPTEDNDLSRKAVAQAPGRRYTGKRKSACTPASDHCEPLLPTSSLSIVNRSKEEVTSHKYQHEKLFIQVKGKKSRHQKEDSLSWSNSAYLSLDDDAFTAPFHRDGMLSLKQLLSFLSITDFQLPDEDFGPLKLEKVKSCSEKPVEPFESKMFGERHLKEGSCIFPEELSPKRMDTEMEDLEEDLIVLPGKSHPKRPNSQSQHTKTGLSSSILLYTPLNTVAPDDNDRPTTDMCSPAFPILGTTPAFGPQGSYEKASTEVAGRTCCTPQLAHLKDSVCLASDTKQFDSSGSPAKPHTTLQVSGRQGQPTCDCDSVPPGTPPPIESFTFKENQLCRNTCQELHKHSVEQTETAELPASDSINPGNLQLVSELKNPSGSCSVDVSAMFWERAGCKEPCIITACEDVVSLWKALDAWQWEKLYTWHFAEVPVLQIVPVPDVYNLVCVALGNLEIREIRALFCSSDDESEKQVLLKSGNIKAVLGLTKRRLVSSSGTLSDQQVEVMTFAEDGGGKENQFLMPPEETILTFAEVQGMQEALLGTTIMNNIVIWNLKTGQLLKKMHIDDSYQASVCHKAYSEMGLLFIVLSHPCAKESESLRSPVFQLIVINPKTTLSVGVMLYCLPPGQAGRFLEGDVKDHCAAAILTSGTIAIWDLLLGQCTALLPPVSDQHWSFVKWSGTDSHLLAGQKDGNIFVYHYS", "UniProt Q8N128": "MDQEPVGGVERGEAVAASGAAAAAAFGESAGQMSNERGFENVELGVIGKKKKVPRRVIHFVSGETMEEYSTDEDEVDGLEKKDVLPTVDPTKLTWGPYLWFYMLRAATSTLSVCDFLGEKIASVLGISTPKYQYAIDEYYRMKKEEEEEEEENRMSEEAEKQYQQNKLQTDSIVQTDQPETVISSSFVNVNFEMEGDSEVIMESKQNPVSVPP", "UniProt Q8IXZ2": "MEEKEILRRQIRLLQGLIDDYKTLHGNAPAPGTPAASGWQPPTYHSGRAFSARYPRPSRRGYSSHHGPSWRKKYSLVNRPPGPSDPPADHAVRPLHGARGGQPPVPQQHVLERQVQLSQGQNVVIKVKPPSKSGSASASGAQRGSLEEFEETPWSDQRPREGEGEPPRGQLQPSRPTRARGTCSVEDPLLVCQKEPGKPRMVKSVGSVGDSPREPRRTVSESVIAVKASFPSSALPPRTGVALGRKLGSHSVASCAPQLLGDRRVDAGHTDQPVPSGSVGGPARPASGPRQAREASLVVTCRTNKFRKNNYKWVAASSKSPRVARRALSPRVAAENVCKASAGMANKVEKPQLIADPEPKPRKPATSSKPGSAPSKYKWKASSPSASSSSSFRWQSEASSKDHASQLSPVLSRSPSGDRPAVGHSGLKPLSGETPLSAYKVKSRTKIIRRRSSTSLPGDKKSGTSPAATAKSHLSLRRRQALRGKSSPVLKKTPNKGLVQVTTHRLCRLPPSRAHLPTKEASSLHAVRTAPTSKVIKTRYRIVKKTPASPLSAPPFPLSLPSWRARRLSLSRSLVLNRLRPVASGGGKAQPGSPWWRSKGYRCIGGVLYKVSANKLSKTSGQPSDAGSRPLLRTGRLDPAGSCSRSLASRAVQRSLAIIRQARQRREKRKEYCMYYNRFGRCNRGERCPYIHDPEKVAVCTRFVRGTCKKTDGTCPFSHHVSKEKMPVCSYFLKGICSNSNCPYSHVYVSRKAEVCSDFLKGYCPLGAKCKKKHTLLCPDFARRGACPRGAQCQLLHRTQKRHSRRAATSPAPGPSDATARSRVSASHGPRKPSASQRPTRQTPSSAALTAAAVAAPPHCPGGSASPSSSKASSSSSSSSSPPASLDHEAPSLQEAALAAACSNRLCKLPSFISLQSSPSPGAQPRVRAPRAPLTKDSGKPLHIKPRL", "UniProt Q86VQ0": "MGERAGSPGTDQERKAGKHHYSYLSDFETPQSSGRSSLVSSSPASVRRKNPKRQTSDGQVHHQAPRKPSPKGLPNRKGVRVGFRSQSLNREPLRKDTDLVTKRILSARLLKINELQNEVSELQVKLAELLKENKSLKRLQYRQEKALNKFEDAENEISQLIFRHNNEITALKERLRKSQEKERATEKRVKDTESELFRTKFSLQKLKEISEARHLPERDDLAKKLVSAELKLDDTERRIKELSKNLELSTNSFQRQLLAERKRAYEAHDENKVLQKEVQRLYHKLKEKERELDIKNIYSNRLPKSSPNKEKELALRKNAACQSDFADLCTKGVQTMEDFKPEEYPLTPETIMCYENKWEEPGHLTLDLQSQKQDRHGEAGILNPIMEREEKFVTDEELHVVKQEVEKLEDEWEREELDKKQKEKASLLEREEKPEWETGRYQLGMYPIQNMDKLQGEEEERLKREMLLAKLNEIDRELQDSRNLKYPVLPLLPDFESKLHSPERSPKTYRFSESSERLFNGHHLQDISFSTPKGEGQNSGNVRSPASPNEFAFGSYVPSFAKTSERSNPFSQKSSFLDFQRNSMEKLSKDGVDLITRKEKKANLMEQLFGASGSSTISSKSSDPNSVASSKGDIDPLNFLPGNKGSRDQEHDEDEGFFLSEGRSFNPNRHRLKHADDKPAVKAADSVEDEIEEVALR", "UniProt Q86WP2": "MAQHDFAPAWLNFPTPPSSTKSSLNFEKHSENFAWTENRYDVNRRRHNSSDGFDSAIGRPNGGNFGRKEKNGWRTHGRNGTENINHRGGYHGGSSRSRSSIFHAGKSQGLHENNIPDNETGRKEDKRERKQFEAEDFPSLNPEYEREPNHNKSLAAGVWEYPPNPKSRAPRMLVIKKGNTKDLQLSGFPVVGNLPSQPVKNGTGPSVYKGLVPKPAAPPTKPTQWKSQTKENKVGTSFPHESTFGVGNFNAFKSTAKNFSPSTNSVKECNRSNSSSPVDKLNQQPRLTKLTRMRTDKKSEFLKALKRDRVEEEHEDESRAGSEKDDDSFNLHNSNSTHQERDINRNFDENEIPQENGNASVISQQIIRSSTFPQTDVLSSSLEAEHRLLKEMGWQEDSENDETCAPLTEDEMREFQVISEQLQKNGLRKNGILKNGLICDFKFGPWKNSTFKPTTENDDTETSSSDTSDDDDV", "UniProt Q86VZ5": "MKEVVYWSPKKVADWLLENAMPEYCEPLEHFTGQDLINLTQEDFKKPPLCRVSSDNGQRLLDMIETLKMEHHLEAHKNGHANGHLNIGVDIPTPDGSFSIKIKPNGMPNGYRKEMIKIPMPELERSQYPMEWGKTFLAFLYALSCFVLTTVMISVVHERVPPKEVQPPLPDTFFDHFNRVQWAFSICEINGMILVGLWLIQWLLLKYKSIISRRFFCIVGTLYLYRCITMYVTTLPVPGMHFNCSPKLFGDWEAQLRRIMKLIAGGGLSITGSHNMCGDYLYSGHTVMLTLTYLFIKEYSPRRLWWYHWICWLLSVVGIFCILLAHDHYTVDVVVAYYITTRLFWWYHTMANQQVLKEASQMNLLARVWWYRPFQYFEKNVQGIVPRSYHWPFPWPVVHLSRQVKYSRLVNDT", "UniProt Q8IYI8": "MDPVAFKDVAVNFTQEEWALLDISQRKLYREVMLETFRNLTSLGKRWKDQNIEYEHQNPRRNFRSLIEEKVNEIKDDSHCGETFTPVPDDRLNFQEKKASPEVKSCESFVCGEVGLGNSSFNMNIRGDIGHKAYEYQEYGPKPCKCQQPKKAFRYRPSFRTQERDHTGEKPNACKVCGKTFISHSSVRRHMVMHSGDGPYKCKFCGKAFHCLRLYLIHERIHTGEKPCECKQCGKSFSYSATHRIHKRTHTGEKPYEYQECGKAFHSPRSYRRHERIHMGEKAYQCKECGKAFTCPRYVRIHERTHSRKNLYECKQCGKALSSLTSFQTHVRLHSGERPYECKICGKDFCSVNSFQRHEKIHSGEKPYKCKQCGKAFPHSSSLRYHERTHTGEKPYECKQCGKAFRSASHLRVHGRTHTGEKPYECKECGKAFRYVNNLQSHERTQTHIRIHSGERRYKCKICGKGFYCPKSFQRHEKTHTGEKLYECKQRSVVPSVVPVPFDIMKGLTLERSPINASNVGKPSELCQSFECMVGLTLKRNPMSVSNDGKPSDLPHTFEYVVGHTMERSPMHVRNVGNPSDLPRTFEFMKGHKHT"}, "source": "the supplement of paper PMC12819154", "about": "“High-throughput peptide-centric local stability assay extends protein–ligand identification to membrane proteins, tissues and bacteria” (Nature Structural & Molecular Biology, 2025)", "note": "This is one part of the list. Most values lie at the level of the controls, where differences are scatter."}
{"compound": "Cc1nc(Nc2ncc(C(=O)Nc3c(C)cccc3Cl)s2)cc(N2CCN(CCO)CC2)n1 [dasatinib]", "test": "log2 fold change of tryptic peptide abundance, ligand vs vehicle (limited proteolysis) (log2 ratio); higher = more trypsin-susceptible (destabilized)", "conditions": "ligand concentration: 5 uM; sample: K562 cleared lysate"}
{"target": "UniProt Q8N0S2 (peptide sequence: LKEELEK, peptide start residue: 278)", "log2 fold change": -0.212}
{"target": "KBTBD6 (peptide sequence: EACASFLAR, peptide start residue: 158) (UniProt Q86V97)", "log2 fold change": 0.7}
{"target": "UniProt Q8IVN3 (peptide sequence: AGPTKSVFG, peptide start residue: 74)", "log2 fold change": 0.0776}
{"target": "NR2C2AP (peptide sequence: GCLEGSQGTQALHK, peptide start residue: 75) (UniProt Q86WQ0)", "log2 fold change": -0.276}
{"target": "ZNF101 (peptide sequence: RQGDHLSPGV, peptide start residue: 427) (UniProt Q8IZC7)", "log2 fold change": 0.266}
{"target": "UniProt Q8N163 (peptide sequence: DDGEEEFAGAKLEDSEVR, peptide start residue: 657)", "log2 fold change": 0.158}
{"target": "UniProt Q8IYD8 (peptide sequence: KLEEVVIEHFK, peptide start residue: 452)", "log2 fold change": -0.459}
{"target": "UniProt Q8IVP9 (peptide sequence: VHTGERPYECNECGK, peptide start residue: 471)", "log2 fold change": 0.0161}
{"target": "UniProt Q86YF9 (peptide sequence: EELQELK, peptide start residue: 777)", "log2 fold change": -0.0912}
{"target": "UniProt Q86YS7 (peptide sequence: NQTYSFSPSK, peptide start residue: 289)", "log2 fold change": 0.271}
{"target": "FOXRED2 (peptide sequence: HDWNSLLSHDPR, peptide start residue: 97) (UniProt Q8IWF2)", "log2 fold change": 0.0221}
{"target": "PALB2 (peptide sequence: TDDTQEHFPHR, peptide start residue: 121) (UniProt Q86YC2)", "log2 fold change": 0.3}
{"target": "CMIP (peptide sequence: SVVVASSEIHVEVER, peptide start residue: 394) (UniProt Q8IY22)", "log2 fold change": -0.633}
{"target": "GSPT2 (peptide sequence: FVKQDQVCIAR, peptide start residue: 446) (UniProt Q8IYD1)", "log2 fold change": -0.16}
{"target": "FAM177A1 (peptide sequence: IASVLGISTPK, peptide start residue: 121) (UniProt Q8N128)", "log2 fold change": 0.355}
{"target": "UniProt Q8IXH7 (peptide sequence: FPVVAMGVLK, peptide start residue: 420)", "log2 fold change": -0.691}
{"target": "ZC3H3 (peptide sequence: LDPAGSCSR, peptide start residue: 637) (UniProt Q8IXZ2)", "log2 fold change": 0.232}
{"target": "LCA5 (peptide sequence: NLELSTNSFQR, peptide start residue: 245) (UniProt Q86VQ0)", "log2 fold change": 0.616}
{"target": "GPBP1 (peptide sequence: SQGLHENNIPDNETGR, peptide start residue: 107) (UniProt Q86WP2)", "log2 fold change": 0.325}
{"target": "RAB43 (peptide sequence: LVLVGDASVGK, peptide start residue: 21) (UniProt Q86YS6)", "log2 fold change": -0.171}
{"target": "SGMS1 (peptide sequence: IKPNGMPNGYRK, peptide start residue: 102) (UniProt Q86VZ5)", "log2 fold change": 0.26}
{"target": "DIS3L2 (peptide sequence: QAFDVLVLR, peptide start residue: 780) (UniProt Q8IYB7)", "log2 fold change": -0.682}
{"target": "FERMT3 (peptide sequence: HPEELSLLRAPEKK, peptide start residue: 135) (UniProt Q86UX7)", "log2 fold change": -0.198}
{"target": "KMT2E (peptide sequence: ALLLSDHR, peptide start residue: 1269) (UniProt Q8IZD2)", "log2 fold change": -0.192}
{"target": "YAF2 (peptide sequence: RQPKPSSDEGYWDCSVCTFR, peptide start residue: 12) (UniProt Q8IY57)", "log2 fold change": 0.465}
{"target": "APLF (peptide sequence: ATDSVLQGSEGNK, peptide start residue: 361) (UniProt Q8IW19)", "log2 fold change": 0.329}
{"target": "UniProt Q8IUZ5 (peptide sequence: YLHDNIVDYAQR, peptide start residue: 84)", "log2 fold change": -0.484}
{"target": "UniProt Q8IXM2 (peptide sequence: KVYEDSGIPLPAESPK, peptide start residue: 83)", "log2 fold change": -0.0996}
{"target": "ZC3H7A (peptide sequence: WMNIRPLPTKK, peptide start residue: 756) (UniProt Q8IWR0)", "log2 fold change": -0.222}
{"target": "PROSER2 (peptide sequence: YLTHEEK, peptide start residue: 53) (UniProt Q86WR7)", "log2 fold change": 0.377}
{"target": "UniProt Q86W54 (peptide sequence: NHMSDFR, peptide start residue: 164)", "log2 fold change": -0.0231}
{"target": "ZDHHC14 (peptide sequence: TMHVLGLASQDSLHEDSVR, peptide start residue: 462) (UniProt Q8IZN3)", "log2 fold change": 0.353}
{"target": "RAB11FIP4 (peptide sequence: KISSTAFGR, peptide start residue: 302) (UniProt Q86YS3)", "log2 fold change": -0.488}
{"target": "ZNF440 (peptide sequence: THTGEKPYEYQECGK, peptide start residue: 249) (UniProt Q8IYI8)", "log2 fold change": 0.257}
{"target": "GATAD2A (peptide sequence: GTQNIPAGKPSLQTSSAR, peptide start residue: 196) (UniProt Q86YP4)", "log2 fold change": 0.0938}
{"target": "SYTL1 (peptide sequence: LTIDEAPQER, peptide start residue: 139) (UniProt Q8IYJ3)", "log2 fold change": 0.258}
{"target": "UniProt Q8IX21 (peptide sequence: QSIIDFFKPASK, peptide start residue: 49)", "log2 fold change": -0.27}
